The target of test [1] is T1, Tau tubulin kinase 2 (TTBK2), two-hybrid bait in pGBKT7 (mouse) (UniProt Q3UVR3).
T1 sequence: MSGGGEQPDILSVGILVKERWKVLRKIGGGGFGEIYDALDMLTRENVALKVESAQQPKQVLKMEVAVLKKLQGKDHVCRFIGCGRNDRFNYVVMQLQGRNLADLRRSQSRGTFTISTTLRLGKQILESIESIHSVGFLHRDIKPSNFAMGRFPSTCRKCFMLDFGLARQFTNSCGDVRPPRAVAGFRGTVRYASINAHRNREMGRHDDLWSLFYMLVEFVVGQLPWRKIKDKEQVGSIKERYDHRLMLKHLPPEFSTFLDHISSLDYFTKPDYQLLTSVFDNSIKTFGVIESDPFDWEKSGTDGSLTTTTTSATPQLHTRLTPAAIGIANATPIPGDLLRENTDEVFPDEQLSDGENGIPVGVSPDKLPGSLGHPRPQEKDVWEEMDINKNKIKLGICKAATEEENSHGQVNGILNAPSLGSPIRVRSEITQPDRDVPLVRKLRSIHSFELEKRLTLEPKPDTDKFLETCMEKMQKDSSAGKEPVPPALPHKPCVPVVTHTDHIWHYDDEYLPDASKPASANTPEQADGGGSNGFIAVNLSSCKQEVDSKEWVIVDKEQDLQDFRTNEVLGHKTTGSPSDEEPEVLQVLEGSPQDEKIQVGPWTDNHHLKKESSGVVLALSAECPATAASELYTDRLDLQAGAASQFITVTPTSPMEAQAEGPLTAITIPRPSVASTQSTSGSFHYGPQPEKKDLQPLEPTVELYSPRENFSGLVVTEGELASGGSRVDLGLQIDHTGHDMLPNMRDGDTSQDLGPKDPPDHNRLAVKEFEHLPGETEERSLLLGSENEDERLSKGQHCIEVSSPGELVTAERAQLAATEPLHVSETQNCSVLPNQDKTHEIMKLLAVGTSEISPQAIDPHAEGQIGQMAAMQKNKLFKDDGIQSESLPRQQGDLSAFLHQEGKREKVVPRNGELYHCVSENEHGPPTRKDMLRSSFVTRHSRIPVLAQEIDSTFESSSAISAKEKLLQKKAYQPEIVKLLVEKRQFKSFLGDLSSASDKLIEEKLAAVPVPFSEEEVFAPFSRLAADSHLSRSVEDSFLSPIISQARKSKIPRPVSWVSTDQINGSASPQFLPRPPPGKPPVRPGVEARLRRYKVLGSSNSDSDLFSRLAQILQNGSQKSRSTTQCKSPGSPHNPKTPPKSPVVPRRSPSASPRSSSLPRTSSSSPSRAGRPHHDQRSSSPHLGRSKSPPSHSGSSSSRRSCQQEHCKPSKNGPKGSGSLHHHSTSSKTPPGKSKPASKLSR
Briefly: two-hybrid; TTBK2 in pGBKT7 as bait, candidates in pGADT7 as prey; co-transformed into yeast AH109; SD-Leu-Trp-His plates, 30 °C, 2-3 days, SD-Leu-Trp plates as controls.

Test [2] addresses T2, HA-TTBK2 (mouse) (UniProt Q3UVR3).
T2 sequence: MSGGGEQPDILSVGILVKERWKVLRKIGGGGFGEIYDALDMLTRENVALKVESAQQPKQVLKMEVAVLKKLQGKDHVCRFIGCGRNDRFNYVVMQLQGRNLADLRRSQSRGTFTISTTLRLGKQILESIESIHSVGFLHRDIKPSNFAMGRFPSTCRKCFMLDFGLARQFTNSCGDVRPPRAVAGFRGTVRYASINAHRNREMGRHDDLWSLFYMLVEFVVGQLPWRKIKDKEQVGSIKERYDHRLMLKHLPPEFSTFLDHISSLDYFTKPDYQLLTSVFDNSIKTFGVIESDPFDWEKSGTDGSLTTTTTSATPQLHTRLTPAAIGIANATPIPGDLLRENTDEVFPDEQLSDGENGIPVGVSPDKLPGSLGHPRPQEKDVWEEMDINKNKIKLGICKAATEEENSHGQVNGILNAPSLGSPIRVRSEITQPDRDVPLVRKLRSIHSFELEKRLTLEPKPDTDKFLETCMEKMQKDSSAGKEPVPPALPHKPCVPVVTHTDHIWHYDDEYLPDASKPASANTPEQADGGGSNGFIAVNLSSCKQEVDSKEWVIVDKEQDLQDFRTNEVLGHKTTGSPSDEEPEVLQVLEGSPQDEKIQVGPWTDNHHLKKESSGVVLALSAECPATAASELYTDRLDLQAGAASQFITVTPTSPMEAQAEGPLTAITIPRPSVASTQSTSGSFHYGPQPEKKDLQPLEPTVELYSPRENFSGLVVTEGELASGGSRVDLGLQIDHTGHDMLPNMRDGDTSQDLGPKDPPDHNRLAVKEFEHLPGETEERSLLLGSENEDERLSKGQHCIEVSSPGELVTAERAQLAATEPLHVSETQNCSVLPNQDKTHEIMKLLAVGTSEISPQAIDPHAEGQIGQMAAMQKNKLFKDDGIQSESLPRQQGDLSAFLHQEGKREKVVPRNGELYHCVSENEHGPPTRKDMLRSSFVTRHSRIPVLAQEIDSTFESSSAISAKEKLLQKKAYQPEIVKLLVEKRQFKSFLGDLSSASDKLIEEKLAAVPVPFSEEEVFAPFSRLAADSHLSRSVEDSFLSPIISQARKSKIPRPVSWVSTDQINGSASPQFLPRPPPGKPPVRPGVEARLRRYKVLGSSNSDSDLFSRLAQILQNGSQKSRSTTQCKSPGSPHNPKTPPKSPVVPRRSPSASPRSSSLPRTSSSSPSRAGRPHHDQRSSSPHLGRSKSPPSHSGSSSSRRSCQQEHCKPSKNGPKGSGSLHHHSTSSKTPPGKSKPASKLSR
Briefly: co-IP; reciprocal co-IP of HA-TTBK2 and Flag-IFT88 in HEK293T cells.

Results are given in words; binding and its absence hold for the method and conditions named. For some assays here: In cells and extracts the contact can be indirect. Some binding calls cover weakened binding; strength is not graded here. For some assays here: Where a sequence is shown, tags or fusion partners need not be part of it.

B1: IFT88, two-hybrid prey in pGADT7 (protein, UniProt Q61371 1-824)
chain: MENVHLAPETDEDDLYSGFNDYNPAYDTEELENDTGFQQAVRTSHGRRPPVTAKIPSTAVSRPIATGYGSKTSLTSSMGRPMTGTIQDGVARPMTAVRAAGFSKAALRGSAFDPLGQSRGPAPPLEAKNEDSPEEKIRQLEKKVNELVEESCIANSCGDLKLALEKAKDAGRKERVLVRQREQVTSPENINLDLTYSVLFNLASQYSANEMYAEALNTYQVIVKNKMFSNAGRLKVNMGNIYLKQRNYSKAIKFYRMALDQIPSVHKEMRIKIMQNIGITFIKTGQYSDAINSFEHIMSMAPSLKAGFNLILSCFAIGDREKMKKAFQKLIAVPLEIDEDDKYISPSDDPHTNLLIEAIKNDHLRQMERERKAMAEKYIMTAAKLIAPVIEASFAVGYNWCVEVVKASQYVELANDLEINKAITYLRQKDFNQAVDTLKMFEKKDSRVKSAAATNLSFLYYLENEFAQASSYADLAVNSDRYNPSALTNKGNTVFANGDYEKAAEFYKEALRNDSSCTEALYNIGLTYKKLNRLDEALDSFLKLHAILRNSAQVLCQIANIYELMEDPNQAIEWLMQLISVVPTDSQALSKLGELYDSEGDKSQAFQYYYESYRYFPSNIEVIEWLGAYYIDTQFCEKAIQYFERASLIQPTQVKWQLMVASCFRRSGNYQKALDTYKEIHRKFPENVECLRFLVRLCTDIGLKEVQEYATKLKRLEKMKEMREQRIKSGRDSSGGSRSKREGSAGSDSGQNNSASSKSERLSAKLRALPGTDEPYESSGNKEIDASYVDPLGPQIERPKTAAKKRIDEDDFADEELGDDLLPE
Turning to B1, the binding result in test [1] was “binds”.

B2: Flag-IFT88 (protein, UniProt Q61371 1-824)
chain: MENVHLAPETDEDDLYSGFNDYNPAYDTEELENDTGFQQAVRTSHGRRPPVTAKIPSTAVSRPIATGYGSKTSLTSSMGRPMTGTIQDGVARPMTAVRAAGFSKAALRGSAFDPLGQSRGPAPPLEAKNEDSPEEKIRQLEKKVNELVEESCIANSCGDLKLALEKAKDAGRKERVLVRQREQVTSPENINLDLTYSVLFNLASQYSANEMYAEALNTYQVIVKNKMFSNAGRLKVNMGNIYLKQRNYSKAIKFYRMALDQIPSVHKEMRIKIMQNIGITFIKTGQYSDAINSFEHIMSMAPSLKAGFNLILSCFAIGDREKMKKAFQKLIAVPLEIDEDDKYISPSDDPHTNLLIEAIKNDHLRQMERERKAMAEKYIMTAAKLIAPVIEASFAVGYNWCVEVVKASQYVELANDLEINKAITYLRQKDFNQAVDTLKMFEKKDSRVKSAAATNLSFLYYLENEFAQASSYADLAVNSDRYNPSALTNKGNTVFANGDYEKAAEFYKEALRNDSSCTEALYNIGLTYKKLNRLDEALDSFLKLHAILRNSAQVLCQIANIYELMEDPNQAIEWLMQLISVVPTDSQALSKLGELYDSEGDKSQAFQYYYESYRYFPSNIEVIEWLGAYYIDTQFCEKAIQYFERASLIQPTQVKWQLMVASCFRRSGNYQKALDTYKEIHRKFPENVECLRFLVRLCTDIGLKEVQEYATKLKRLEKMKEMREQRIKSGRDSSGGSRSKREGSAGSDSGQNNSASSKSERLSAKLRALPGTDEPYESSGNKEIDASYVDPLGPQIERPKTAAKKRIDEDDFADEELGDDLLPE
Take B2: the binding entry in test [2] is “binds”.

(Values after article PMC12667522.)
